For two molecules, binding results are on record in article doi:10.1101/2020.11.17.387951.

Protein sequences, listed by entry. Tags and fused reporters are not part of them.
UniProt P12579, whole entry: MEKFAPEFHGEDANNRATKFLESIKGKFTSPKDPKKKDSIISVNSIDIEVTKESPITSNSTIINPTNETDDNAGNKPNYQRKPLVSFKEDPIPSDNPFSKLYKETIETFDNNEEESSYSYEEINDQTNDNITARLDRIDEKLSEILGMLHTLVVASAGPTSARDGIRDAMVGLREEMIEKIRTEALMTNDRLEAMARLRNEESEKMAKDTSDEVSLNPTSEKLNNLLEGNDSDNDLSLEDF

These are yes or no findings as the source states them, for the method shown. For some assays here: Binding seen in cells or lysates may run through a third protein. For some assays here: Sequences can lack the tags named with a protein. Some results given as binding are weak or reduced against the parent protein; the word gives no strength.

Assay [1] has as its target recombinant RSV Phosphoprotein, full-length (human respiratory syncytial virus (strain not stated for the bacterial construct)) (UniProt P12579). Briefly: native gel or EMSA.
In assay [2] the target is T1, RSV A2 M2-1 protein fused to the NanoLUC 11S subunit (human respiratory syncytial virus, strain A2), P04545.
T1 chain: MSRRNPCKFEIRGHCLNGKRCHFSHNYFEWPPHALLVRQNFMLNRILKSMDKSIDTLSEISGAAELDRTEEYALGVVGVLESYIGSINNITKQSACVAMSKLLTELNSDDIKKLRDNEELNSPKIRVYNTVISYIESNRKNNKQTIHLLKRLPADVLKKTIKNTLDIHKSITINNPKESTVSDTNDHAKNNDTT
Nature of the assay: split reporter. To be noted: remark: other sources report otherwise.

B1: recombinant RSV Matrix protein, wild type (protein, UniProt P0DOE7 1-256)
chain: METYVNKLHEGSTYTAAVQYNVLEKDDDPASLTIWVPMFQSSMPADLLIKELANVNILVKQISTPKGPSLRVMINSRSAVLAQMPSKFTICANVSLDERSKLAYDVTTPCEIKACSLTCLKSKNMLTTVKDLTMKTLNPTHDIIALCEFENIVTSKKVIIPTYLRSISVRNKDLNTLENITTTEFKNAITNAKIIPYSGLLLVITVTDNKGAFKYIKPQSQFIVDLGAYLEKESIYYVTTNWKHTATRFAIKPMED
For the molecule B1, the binding entry in assay [1] was “binds”.

B2: RSV A2 Matrix protein fused to the NanoLUC 114 subunit, P0DOE7 1-256 (protein)
chain: B1 chain
As to B2, in assay [2], the binding result was “no binding”.
